Source: PubChem BioAssay AID540276 (National Center for Advancing Translational Sciences (NCATS), 2011)
The campaign covered roughly 300,000 compounds. About 5,400 (1.8%) were called active. The shares of active, inactive and inconclusive entries below differ from those in the screen. Calls come from the whole dose curve; tested in HEK293 cells. A potency beside an inconclusive call is a rough fit, not a confirmed value.

Experiment: qHTS for inhibitors of binding or entry into cells for Marburg Virus
Settings: Marburg virus pseudotyped entry inhibition, cell reporter; activity change, negative = inhibition: at 37.8 µM (top of the series) unless noted
% is set by controls: 0 for no effect and ±100 for the full control effect; potency is the fitted concentration of half-maximal effect.

Row | SMILES | activity change, negative = inhibition | Potency
1 | C(=C\c1nc(-c2cccnc2)no1)/c1ccccc1 | inactive: -7.15% | –
2 | Cc1cc(C(=O)CS(=O)(=O)c2ccccc2)cc(C)c1O | inactive: 26.5% [at 46.1 µM] | –
3 | O=C(Nc1ccc2c(c1)OCO2)c1cc(-c2ccncc2)nc2ccccc12 | – | inconclusive: 35.5 µM [inhibitor, single point]
4 | Cc1cc(=O)c2c(O)c(O)ccc2o1 | – | inconclusive: 16.4 µM [inhibitor, single point]
5 | COc1ccc(NC(=O)Cn2c(=O)n(Cc3ccc4c(c3)OCO4)c(=O)c3ccc(C(=O)NC4CCCCC4)cc32)cc1 | inactive: 4.38% [at 46.1 µM] | –
6 | CCC(=NCCCN(CC)CC)c1c(O)n(C2CCCCC2)c(=O)[nH]c1=O | inactive: -3.81% | –
7 | O=C(Nc1ccc2c(c1)N(S(=O)(=O)c1cccs1)CCC2)c1c(F)cccc1F | – | inconclusive: 35.5 µM [inhibitor, single point]
8 | c1ccc(-n2nnnc2Sc2ncnc3sc4c(c23)CCCC4)cc1 | – | inconclusive: 31.6 µM [inhibitor, single point]
9 | CN1CCN(C(=S)c2ccc(OCC(=O)Nc3cccc(C(F)(F)F)c3)cc2)CC1 | – | inconclusive: 14.1 µM [inhibitor, partial curve, poor fit]
10 | Nc1nc(SCC(=O)Nc2cc(Cl)c(Cl)cc2Cl)n[nH]1 | inactive: -20.9% | –
11 | COCCCn1c(SCC(=O)Nc2ccc(NC(C)=O)cc2)nc2sc3c(c2c1=O)CCC3 | inactive: 4.24% [at 46.1 µM] | –
12 | COc1ccc(OCC(=O)N(Cc2cccs2)c2ccc(OC)cc2)cc1 | – | inconclusive: 6.31 µM [inhibitor, single point]
13 | Cc1ccc(C(=O)Nc2ccc(Cl)cn2)cc1 | – | active: 7.3 µM
14 | COCCCn1c(-c2ccccc2Cl)n[nH]c1=S | inactive: 27.2% | –
15 | CSCCC(NS(=O)(=O)c1ccc2c(c1)oc(=O)n2C)C(=O)Nc1ccc(Cl)cc1 (stereo unspecified) | inactive: -13% [at 46.1 µM] | –
16 | CC(C)c1ccc(CNc2nc(-c3ccco3)nn2C(=O)c2ccc([N+](=O)[O-])cc2)cc1 | inactive: 20.9% [at 46.1 µM] | –
17 | COc1ccc(Cl)cc1C(=O)NNC(=S)NC1CCCCC1 | inactive: 2.1% [at 46.1 µM] | –
18 | COc1cccc(Nc2nc(C)nc3c2oc2ccccc23)c1 | – | inconclusive: 35.5 µM [inhibitor, single point]
19 | COc1ccc2c(c1)C(=O)[C@@H](OC(=O)NS(=O)(=O)c1ccc(F)cc1)[C@H](c1ccc(OC)c(Br)c1)O2 | – | inactive
20 | Cc1ccc(SCC(=O)N2c3ccccc3Sc3ccccc32)cc1 | – | inconclusive: 11.2 µM [inhibitor, partial curve, poor fit]
21 | COc1cc(OC)cc(-c2cc3nc(C)c(CCC(=O)Nc4ccc(C(C)=O)cc4)c(C)n3n2)c1 | – | inconclusive: 0.562 µM [inhibitor, full curve, poor fit]
22 | O=C(CCN1C(=O)c2ccccc2C1=O)N1CCCCCC1 | inactive: 8.89% [at 46.1 µM] | –
23 | O=C(Nc1ccccc1F)c1cc2nc(C(F)F)cc(C(F)F)n2n1 | – | inconclusive: 20.6 µM [activator, single point]
24 | COc1ccc(-c2csc(NC(=O)c3ccccc3NS(=O)(=O)c3ccc(C)cc3)n2)cc1 | – | active: 12.6 µM

Row | SMILES | activity change, negative = inhibition | Potency
25 | O=C1C=CC(=O)N1CCNc1ncc(C(F)(F)F)cc1Cl | – | inconclusive: 0.562 µM [inhibitor, full curve, poor fit]
26 | O=C(NCc1cccnc1)c1cccc(S(=O)(=O)Nc2cccc(Cl)c2)c1 | – | inconclusive: 12.6 µM [inhibitor, partial curve, poor fit]
27 | C=CCn1c(C)cc(C2=NNC(=NCC)SC2)c1C | – | active: 1.16 µM
28 | CCC1CCCCN1CC(=O)c1c(C)[nH]c2ccc(OC)cc12 (stereo unspecified) | inactive: -6.26% | –
29 | CCOC(=O)C1CCN(C(=O)c2cccc(Cl)c2)CC1 | inactive: 23.6% | –
30 | CC(=O)Nc1ccc(Nc2nc(C)c([N+](=O)[O-])c(Nc3ccc(NC(C)=O)cc3)n2)cc1 | – | inconclusive: 15.8 µM [inhibitor, single point]
31 | CN(C)S(=O)(=O)Oc1cccc(C(=O)Nc2ccccc2Cl)c1 | inactive: 31.2% | –
32 | C/C(Cl)=C\Cn1c(N2CCCC2)nc2c1c(=O)[nH]c(=O)n2C | inactive: -22.8% | –
33 | CCN(CC)c1ncnc2c1ncn2Cc1c(Cl)cccc1Cl | – | inconclusive: 22.4 µM [inhibitor, single point]
34 | COc1ccc(OC)c(CNC(=O)CN(c2ccc(C)cc2)S(=O)(=O)N(C)C)c1 | – | inconclusive: 35.5 µM [inhibitor, single point]
35 | CC(C)(C)c1ccc(C(=O)Nc2ccccc2NC(=O)c2ccco2)cc1 | – | inconclusive: 11.2 µM [inhibitor, partial curve]
36 | O=[N+]([O-])c1cccc(/C=C/c2ccncc2)c1 | – | inconclusive: 29.1 µM [inhibitor, single point]
37 | Cc1cccc(C)c1OCc1cc(C(=O)N2CCCCCCC2)no1 | – | inconclusive: 12.6 µM [inhibitor, partial curve, poor fit]
38 | CCOc1ccccc1N(CC(=O)N/N=C(\C)c1cccc(Br)c1)S(C)(=O)=O | – | inconclusive: 6.31 µM [inhibitor, single point]
39 | CC(C)NC(=O)Cn1nnc(-c2cccc(NC(=O)c3ccccc3F)c2)n1 | – | inconclusive: 31.6 µM [inhibitor, single point]
40 | CCOC(=O)c1[nH]c(=O)[nH]c1CSc1ccccn1 | – | inconclusive: 2.91 µM [activator, full curve, poor fit]
41 | Cc1ccc2nc(Nc3nc(CSc4nnc(C)s4)cc(=O)[nH]3)nc(C)c2c1 | inactive: 3.14% [at 46.1 µM] | –
42 | Cc1ccc(C(=O)NCC2CCCN2S(=O)(=O)c2cccs2)cc1C (stereo unspecified) | – | inconclusive: 1.26 µM [inhibitor, single point]
43 | O=C1N(Cc2cccc(Cl)c2)C[C@@H]2C[C@@H](c3cccn3-c3cccnc3)N3CCC[C@@]123 | – | active: 12.6 µM
44 | CCOc1ccc(C2N(c3cc(Cl)ccc3OC)C(=O)C3CCCN32)cc1OC (stereo unspecified) | inactive: 1.6% | –
45 | Cn1c(SCC(=O)NCc2ccco2)nc2ccccc2c1=O | inactive: 9.96% | –
46 | O=C(c1ccc(OCC2CCCO2)cc1)N1CCN(S(=O)(=O)c2cccc(F)c2)CC1 (stereo unspecified) | inactive: 1.22% | –
47 | COc1cc(CC(=O)OCC(=O)Nc2sccc2C(N)=O)cc(OC)c1OC | – | active: 11.2 µM
48 | CC(=O)c1ccc(OCCCC(=O)OCC(=O)Nc2ccc3[nH]c(=O)[nH]c3c2)cc1 | – | inconclusive: 5.01 µM [inhibitor, partial curve, poor fit]

Row | SMILES | activity change, negative = inhibition | Potency
49 | Cc1cccc(C(=O)OCC(=O)N(C)c2ccccc2)c1C | inactive: -9.88% [at 46.1 µM] | –
50 | O=C(NC1(C(F)(F)F)C(=O)Nc2c1c(=O)[nH]c(=O)n2-c1ccccc1)c1ccccc1 (stereo unspecified) | – | inconclusive: 1.12 µM [activator, full curve, poor fit]
51 | CCOC(=O)C1CCCN(C(=O)c2cc(=O)c3ccccc3o2)C1 (stereo unspecified) | inactive: 21.8% | –
52 | COc1ccc(-c2cc(-c3c(O)c(OC)c4occc4c3OC)[nH]n2)cc1 | – | inconclusive: 29.1 µM [inhibitor, single point]
53 | CCC(C)c1ccc(OCc2ccc(C(=O)O)o2)cc1 (stereo unspecified) | – | inconclusive: 10 µM [inhibitor, single point]
54 | N#C/C(=C/C1=C(N2CCOCC2)C(=C/c2cccc([N+](=O)[O-])c2)/CC1)C(=O)Nc1ccccc1F | inactive: 7% | –
55 | CCOc1ccccc1CNC(=O)c1ccc(NC(=O)N2CC(C)Sc3ccccc32)cc1 (stereo unspecified) | – | inconclusive: 7.08 µM [inhibitor, full curve, poor fit]
56 | NC(=O)Cn1cc(/C=N\NS(=O)(=O)c2ccc(F)cc2)c2ccccc21 | inactive: 0.241% | –
57 | COC(=O)C1=C(C)N(Cc2ccccc2)C(=NCc2cc(OC)c(OC)c(OC)c2)NC1CCc1ccccc1 (stereo unspecified) | – | inconclusive: 2.99 µM [inhibitor, single point]
58 | Cc1cccc(C(=O)c2c(N)sc3c2CCC(C)C3)c1 (stereo unspecified) | inactive: 0.527% | –
59 | O=C(O)c1cccc(N=NN2CCCCCC2)c1 | – | inconclusive: 10 µM [inhibitor, partial curve, poor fit]
60 | Cc1cc(C)nc(SCc2nnc(SCC(=O)Nc3ccc(C)c(C)c3)o2)n1 | – | inconclusive: 35.5 µM [activator, single point]
61 | O=C(Nc1ncc2c(n1)-c1ccccc1CC2)c1ccccc1 | inactive: -1.02% | –
62 | O=C(O)CCCN1C(=O)C2C3C=CC(C2C1=O)C1C(=O)N(CCCC(=O)O)C(=O)C31 (stereo unspecified) | inactive: 0.216% | –
63 | Cc1ccc(-n2ncc3c(=O)n(CC(=O)N(C)C)cnc32)cc1C | – | inconclusive: 10 µM [activator, partial curve, poor fit]
64 | CCN1CCN(CC(O)COCc2cc(OC)c(OC)c(OC)c2)CC1 (stereo unspecified) | – | inconclusive: 6.31 µM [activator, full curve, poor fit]
65 | CC(C)CC(=O)NC(c1ccccc1)c1c(O)ccc2ccccc12 (stereo unspecified) | – | inconclusive: 3.98 µM [inhibitor, partial curve, poor fit]
66 | Cc1cc(N2CCCC2)ccc1NC(=O)COc1ccc(Cl)cc1 | – | inconclusive: 0.199 µM [activator, full curve, poor fit]
67 | COc1ccc(-c2cn3cccnc3n2)cc1NC(=O)C(C)Oc1ccccc1 (stereo unspecified) | – | inconclusive: 7.94 µM [inhibitor, single point]
68 | CCCn1c(=S)[nH]c2cc(C(=O)N3CCCC(C(=O)OCC)C3)ccc2c1=O (stereo unspecified) | – | inconclusive: 20.6 µM [inhibitor, single point]
69 | O=C(CSc1ccccc1)Nc1nc2ccccc2[nH]1 | – | inconclusive: 2 µM [activator, partial curve, poor fit]
70 | CCS(=O)(=O)Nc1ccc(C2=NN(C(=O)c3ccco3)C(c3cccs3)C2)cc1 (stereo unspecified) | – | inconclusive: 2.82 µM [inhibitor, partial curve, poor fit]
71 | CC1(C)S[C@@H]2[C@H](NC(=O)Cc3ccccc3)C(=O)N2[C@H]1C(=O)O | inactive: -4.6% | –

Rewritten in markdown: part of the list above

| Row | SMILES | activity change, negative = inhibition | Potency |
| --- | --- | --- | --- |
| 22 | O=C(CCN1C(=O)c2ccccc2C1=O)N1CCCCCC1 | inactive: 8.89% [at 46.1 µM] | – |
| 23 | O=C(Nc1ccccc1F)c1cc2nc(C(F)F)cc(C(F)F)n2n1 | – | inconclusive: 20.6 µM [activator, single point] |
| 24 | COc1ccc(-c2csc(NC(=O)c3ccccc3NS(=O)(=O)c3ccc(C)cc3)n2)cc1 | – | active: 12.6 µM |
| 25 | O=C1C=CC(=O)N1CCNc1ncc(C(F)(F)F)cc1Cl | – | inconclusive: 0.562 µM [inhibitor, full curve, poor fit] |
